Reference: PMC6115016
These are yes or no findings as the source states them, for the method shown. Binding seen in cells or lysates may run through a third protein. Some entries that bind do so weakly or less than the wild type.

By UniProt entry, the sequences of proteins in these tests, tags left out.
UniProt Q14160: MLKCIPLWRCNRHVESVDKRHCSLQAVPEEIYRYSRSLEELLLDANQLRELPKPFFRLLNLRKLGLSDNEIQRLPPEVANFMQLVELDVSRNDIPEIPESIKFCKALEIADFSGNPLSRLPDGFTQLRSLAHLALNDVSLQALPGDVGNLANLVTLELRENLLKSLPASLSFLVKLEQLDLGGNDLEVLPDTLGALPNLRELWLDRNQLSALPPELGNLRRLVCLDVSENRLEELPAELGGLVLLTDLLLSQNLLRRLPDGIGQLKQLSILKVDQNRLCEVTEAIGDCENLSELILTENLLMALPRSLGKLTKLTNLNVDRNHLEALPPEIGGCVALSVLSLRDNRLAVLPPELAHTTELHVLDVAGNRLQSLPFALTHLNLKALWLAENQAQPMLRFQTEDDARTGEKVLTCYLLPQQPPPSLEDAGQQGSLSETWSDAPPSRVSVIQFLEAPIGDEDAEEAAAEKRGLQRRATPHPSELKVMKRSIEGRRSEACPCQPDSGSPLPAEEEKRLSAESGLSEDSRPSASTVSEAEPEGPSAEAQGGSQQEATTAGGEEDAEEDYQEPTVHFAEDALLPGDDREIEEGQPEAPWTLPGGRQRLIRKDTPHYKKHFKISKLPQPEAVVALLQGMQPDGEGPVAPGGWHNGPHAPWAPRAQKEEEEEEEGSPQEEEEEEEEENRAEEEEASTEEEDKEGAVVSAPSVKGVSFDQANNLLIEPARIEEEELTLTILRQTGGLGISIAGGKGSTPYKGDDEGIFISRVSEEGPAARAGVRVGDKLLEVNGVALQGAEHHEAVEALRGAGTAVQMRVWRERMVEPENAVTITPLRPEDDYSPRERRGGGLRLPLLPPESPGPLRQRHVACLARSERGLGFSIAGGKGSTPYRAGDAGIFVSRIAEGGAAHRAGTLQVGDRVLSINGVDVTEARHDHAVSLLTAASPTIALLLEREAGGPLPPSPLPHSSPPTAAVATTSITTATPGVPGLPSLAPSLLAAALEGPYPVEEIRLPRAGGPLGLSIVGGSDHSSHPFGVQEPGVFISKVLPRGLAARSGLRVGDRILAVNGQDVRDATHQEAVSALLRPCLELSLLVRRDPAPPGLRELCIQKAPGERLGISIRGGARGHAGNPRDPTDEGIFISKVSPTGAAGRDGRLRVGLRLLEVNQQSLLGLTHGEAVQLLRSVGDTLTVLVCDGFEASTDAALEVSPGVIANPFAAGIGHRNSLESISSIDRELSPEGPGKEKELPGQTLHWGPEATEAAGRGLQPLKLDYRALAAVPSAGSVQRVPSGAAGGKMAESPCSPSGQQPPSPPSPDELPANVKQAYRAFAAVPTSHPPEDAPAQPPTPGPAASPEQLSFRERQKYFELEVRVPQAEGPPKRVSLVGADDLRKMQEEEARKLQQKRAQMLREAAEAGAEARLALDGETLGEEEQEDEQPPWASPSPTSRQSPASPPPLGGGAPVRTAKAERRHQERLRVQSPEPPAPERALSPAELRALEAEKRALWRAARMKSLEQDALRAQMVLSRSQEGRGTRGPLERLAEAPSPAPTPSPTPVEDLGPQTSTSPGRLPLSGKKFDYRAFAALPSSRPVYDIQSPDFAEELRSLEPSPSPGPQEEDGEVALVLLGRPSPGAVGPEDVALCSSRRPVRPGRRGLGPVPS
UniProt Q14980: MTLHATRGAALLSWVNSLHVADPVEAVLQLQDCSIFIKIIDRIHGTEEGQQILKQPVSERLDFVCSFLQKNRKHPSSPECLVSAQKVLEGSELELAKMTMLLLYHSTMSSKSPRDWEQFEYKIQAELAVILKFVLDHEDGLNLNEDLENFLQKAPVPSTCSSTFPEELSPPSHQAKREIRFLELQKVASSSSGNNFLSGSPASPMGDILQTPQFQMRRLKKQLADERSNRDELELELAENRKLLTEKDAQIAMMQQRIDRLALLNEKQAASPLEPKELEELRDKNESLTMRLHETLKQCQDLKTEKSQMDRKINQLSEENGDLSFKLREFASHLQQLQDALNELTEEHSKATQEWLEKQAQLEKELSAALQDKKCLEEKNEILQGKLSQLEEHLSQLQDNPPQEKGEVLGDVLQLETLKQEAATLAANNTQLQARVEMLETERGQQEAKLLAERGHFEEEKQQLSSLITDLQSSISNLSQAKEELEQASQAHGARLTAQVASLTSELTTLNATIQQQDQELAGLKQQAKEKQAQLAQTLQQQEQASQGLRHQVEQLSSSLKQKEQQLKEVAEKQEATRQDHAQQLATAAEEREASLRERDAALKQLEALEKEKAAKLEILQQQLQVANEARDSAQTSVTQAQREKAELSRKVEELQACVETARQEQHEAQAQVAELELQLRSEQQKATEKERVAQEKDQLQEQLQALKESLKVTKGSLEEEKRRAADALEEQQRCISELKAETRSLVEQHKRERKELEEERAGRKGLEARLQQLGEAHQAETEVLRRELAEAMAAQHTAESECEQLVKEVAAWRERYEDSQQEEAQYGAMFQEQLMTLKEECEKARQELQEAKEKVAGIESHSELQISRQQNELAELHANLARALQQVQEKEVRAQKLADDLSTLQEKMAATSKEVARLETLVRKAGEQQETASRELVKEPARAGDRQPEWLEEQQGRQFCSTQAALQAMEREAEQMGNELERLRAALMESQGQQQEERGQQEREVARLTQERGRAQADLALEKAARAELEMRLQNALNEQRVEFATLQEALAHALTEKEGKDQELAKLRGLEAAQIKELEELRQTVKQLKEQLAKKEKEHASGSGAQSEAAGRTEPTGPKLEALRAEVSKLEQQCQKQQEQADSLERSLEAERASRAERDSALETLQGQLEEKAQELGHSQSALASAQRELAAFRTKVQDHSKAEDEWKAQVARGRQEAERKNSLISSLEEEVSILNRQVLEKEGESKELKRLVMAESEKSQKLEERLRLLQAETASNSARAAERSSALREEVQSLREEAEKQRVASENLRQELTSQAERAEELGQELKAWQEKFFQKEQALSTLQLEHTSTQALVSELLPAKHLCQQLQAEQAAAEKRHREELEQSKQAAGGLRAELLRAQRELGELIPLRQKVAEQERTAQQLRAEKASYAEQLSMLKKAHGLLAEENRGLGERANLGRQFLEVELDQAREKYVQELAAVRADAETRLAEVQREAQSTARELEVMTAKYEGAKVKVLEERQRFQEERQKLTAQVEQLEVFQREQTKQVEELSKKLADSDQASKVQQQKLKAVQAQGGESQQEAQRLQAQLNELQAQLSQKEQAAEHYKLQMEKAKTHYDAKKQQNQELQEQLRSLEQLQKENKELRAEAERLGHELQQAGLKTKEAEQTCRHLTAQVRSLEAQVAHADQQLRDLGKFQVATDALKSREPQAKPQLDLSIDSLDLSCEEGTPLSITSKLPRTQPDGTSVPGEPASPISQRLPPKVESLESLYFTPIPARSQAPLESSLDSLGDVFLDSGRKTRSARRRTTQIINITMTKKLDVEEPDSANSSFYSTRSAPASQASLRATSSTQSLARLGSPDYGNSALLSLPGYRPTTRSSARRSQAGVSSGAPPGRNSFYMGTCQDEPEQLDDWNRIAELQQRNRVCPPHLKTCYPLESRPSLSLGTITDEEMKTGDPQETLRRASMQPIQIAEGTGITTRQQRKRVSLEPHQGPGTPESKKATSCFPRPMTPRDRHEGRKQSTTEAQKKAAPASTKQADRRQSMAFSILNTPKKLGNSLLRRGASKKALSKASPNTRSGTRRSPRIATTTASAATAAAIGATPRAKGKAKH

B1: leucine-glycine-asparagine repeat protein (LGN) (protein, UniProt P81274 1-684)
chain: MEENLISMREDHSFHVRYRMEASCLELALEGERLCKSGDCRAGVSFFEAAVQVGTEDLKTLSAIYSQLGNAYFYLHDYAKALEYHHHDLTLARTIGDQLGEAKASGNLGNTLKVLGNFDEAIVCCQRHLDISRELNDKVGEARALYNLGNVYHAKGKSFGCPGPQDVGEFPEEVRDALQAAVDFYEENLSLVTALGDRAAQGRAFGNLGNTHYLLGNFRDAVIAHEQRLLIAKEFGDKAAERRAYSNLGNAYIFLGEFETASEYYKKTLLLARQLKDRAVEAQSCYSLGNTYTLLQDYEKAIDYHLKHLAIAQELNDRIGEGRACWSLGNAYTALGNHDQAMHFAEKHLEISREVGDKSGELTARLNLSDLQMVLGLSYSTNNSIMSENTEIDSSLNGVRPKLGRRHSMENMELMKLTPEKVQNWNSEILAKQKPLIAKPSAKLLFVNRLKGKKYKTNSSTKVLQDASNSIDHRIPNSQRKISADTIGDEGFFDLLSRFQSNRMDDQRCCLQEKNCHTASTTTSSTPPKMMLKTSSVPVVSPNTDEFLDLLASSQSRRLDDQRASFSNLPGLRLTQNSQSVLSHLMTNDNKEADEDFFDILVKCQGSRLDDQRCAPPPATTKGPTVPDEDFFSLILRSQGKRMDEQRVLLQRDQNRDTDFGLKDFLQNNALLEFKNSGKKSADH

How the values were obtained:
[1] = molecular target: T1, leucine-glycine-asparagine repeat protein (LGN) (human (endogenous in RWPE-1)) (UniProt P81274); assay: co-IP; endogenous proteins in RWPE-1 cell lysate (50mM Tris-HCl, 150mM NaCl, 1mM EDTA, 0.25% TritonX-100, pH 7.4), 1 ug primary antibody 6 h at 4°C, Protein G-Agarose, immunoblot; also compared in E-cadherin knockdown and SCRIB knockdown cells
T1 sequence: B1 chain

[2] = molecular target: Scribble (SCRIB) (human (endogenous in RWPE-1)) (UniProt Q14160); assay: as above

| Molecule | binding [1] | binding [2] |
| --- | --- | --- |
| nuclear and mitotic apparatus (NUMA) (from UniProt Q14980 1-2115) | binds | – |
| B1 | – | binds |
